Some entries share one result that the patent states for a list of compounds.
Test system: LNCaP cells
Experiment: Pro- and/or anti-proliferative activity on LNCaP in medium depleted in steroids (WST-1)
Format: cell-based
Conditions: 144 h, 1 nM to 100,000 nM
Method: 2. Antiproliferative Activity on LNCaP in a Medium Depleted in Steroids:
The pro- and/or anti-proliferative activity of the compounds of the present invention is determined on LNCaP in medium depleted in steroids.
The LNCaP (ATCC, 1740) line originates from a carcinoma of the prostate expressing the androgen receptor, it is hormone-dependent.
The maintenance of the LNCaP line is carried out under the usual conditions in RPMI, 10% of foetal calf serum, 2 mM of glutamine, 100 U/ml of penicillin, 0.1 mg/ml of streptomycin and 0.01M HEPES, 1 mM sodium pyruvate, 40% of D-glucose.
For the study under conditions without steroids, 24 hours before the seeding the culture medium of the cells is eliminated. […]
The LNCaP line is seeded at 20,000 cells/well in 90 μl of RPMI medium with 10% foetal calf serum depleted in steroids in 96-well plates coated with poly-D-lysine (Biocoat, Costar). • Treatment of the cells: 24 h after seeding, the cells are treated with 10 μl/well of compound diluted in the culture medium. […] The cells are incubated for 144 h at 37° C., 5% CO2. • Reading: After incubation for 6 days, 10 μL of cell proliferation reagent WST-1 (Roche ref 1644807) is added to each well. […]

Cc1cc(N2C(=O)N(CCCCCN3C(=O)N(c4ccc(C#N)c(C)c4)C(=O)C3(C)C)C(C)(C)C2=O)ccc1C#N [Example 15, 4,4′-[pentane-1,5-diylbis(4,4-dimethyl-2,5-dioxoimidazolidine-3,1-diyl)]bis(2-methylbenzonitrile)]
agonist effect on the LNCaP cultured in a medium depleted in steroids: do not have an agonist effect

From patent US8624037B2, “Imidazolidine-2,4-dione derivatives and use thereof as a medicament” (Ipsen Pharma S.A.S., priority 2009, dated 2014)
